Source: the supplement of paper PMC10849652
This is one part of the list.

Amino acid sequences for entries named in this document (tags omitted). A change or cut given only in a name is not applied to a line headed by its entry.
UniProt Q9Y2F5: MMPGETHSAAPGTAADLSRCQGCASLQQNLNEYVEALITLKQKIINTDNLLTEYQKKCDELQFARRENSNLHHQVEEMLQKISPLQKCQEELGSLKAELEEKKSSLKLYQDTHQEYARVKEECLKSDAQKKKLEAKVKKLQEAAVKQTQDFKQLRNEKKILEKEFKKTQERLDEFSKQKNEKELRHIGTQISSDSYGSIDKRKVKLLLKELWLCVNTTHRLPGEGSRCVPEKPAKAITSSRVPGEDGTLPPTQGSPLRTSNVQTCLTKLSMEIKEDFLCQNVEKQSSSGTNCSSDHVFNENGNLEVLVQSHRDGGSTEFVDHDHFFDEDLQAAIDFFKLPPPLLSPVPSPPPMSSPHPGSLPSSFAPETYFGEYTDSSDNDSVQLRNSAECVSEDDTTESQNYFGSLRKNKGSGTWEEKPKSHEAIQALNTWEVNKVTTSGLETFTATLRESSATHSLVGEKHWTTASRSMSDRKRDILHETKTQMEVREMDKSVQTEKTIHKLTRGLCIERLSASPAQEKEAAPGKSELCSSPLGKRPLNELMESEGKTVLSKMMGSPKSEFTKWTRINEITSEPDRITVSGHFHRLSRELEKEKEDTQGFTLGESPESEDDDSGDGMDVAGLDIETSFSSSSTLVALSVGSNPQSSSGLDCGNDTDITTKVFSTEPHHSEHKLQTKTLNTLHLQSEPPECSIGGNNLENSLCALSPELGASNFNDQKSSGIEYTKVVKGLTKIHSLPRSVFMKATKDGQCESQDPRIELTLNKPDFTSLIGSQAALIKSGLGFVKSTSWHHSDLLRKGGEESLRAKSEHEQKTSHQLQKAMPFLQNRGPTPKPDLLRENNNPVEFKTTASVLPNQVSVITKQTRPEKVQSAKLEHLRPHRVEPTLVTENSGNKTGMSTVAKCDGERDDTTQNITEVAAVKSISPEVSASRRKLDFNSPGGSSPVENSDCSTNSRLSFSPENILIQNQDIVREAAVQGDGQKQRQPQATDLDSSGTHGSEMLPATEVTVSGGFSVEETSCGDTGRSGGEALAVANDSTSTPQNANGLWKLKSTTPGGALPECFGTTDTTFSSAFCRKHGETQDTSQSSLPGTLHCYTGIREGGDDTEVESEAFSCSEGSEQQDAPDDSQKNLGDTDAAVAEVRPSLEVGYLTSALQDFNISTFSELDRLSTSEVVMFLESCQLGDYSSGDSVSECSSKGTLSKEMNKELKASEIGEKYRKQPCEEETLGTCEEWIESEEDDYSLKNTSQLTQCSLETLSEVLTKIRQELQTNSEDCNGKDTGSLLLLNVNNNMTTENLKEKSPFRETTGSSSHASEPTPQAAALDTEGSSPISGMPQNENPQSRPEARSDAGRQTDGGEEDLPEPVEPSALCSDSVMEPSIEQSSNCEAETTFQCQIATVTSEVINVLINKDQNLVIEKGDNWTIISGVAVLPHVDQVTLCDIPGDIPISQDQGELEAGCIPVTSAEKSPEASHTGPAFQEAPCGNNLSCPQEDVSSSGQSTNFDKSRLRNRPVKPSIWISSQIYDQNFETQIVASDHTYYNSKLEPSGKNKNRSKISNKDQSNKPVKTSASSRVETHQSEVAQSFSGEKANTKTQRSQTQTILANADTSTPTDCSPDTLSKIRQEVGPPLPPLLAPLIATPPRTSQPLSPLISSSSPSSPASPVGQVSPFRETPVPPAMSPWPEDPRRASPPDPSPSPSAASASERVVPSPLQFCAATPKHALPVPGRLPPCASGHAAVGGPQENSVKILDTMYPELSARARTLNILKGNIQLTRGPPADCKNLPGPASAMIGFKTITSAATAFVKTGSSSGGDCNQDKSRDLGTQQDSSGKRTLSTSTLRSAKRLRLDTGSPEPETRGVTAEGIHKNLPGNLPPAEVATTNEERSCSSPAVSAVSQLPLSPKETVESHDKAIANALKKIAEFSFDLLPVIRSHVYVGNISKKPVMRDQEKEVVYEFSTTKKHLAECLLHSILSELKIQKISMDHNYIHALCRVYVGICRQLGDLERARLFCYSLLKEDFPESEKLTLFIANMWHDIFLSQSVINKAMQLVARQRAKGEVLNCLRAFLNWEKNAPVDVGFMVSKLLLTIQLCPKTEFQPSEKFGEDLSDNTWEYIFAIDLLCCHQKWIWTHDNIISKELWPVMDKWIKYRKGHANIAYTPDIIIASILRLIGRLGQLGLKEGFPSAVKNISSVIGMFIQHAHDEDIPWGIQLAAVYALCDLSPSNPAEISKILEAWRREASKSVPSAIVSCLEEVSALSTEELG
UniProt Q8WYA0: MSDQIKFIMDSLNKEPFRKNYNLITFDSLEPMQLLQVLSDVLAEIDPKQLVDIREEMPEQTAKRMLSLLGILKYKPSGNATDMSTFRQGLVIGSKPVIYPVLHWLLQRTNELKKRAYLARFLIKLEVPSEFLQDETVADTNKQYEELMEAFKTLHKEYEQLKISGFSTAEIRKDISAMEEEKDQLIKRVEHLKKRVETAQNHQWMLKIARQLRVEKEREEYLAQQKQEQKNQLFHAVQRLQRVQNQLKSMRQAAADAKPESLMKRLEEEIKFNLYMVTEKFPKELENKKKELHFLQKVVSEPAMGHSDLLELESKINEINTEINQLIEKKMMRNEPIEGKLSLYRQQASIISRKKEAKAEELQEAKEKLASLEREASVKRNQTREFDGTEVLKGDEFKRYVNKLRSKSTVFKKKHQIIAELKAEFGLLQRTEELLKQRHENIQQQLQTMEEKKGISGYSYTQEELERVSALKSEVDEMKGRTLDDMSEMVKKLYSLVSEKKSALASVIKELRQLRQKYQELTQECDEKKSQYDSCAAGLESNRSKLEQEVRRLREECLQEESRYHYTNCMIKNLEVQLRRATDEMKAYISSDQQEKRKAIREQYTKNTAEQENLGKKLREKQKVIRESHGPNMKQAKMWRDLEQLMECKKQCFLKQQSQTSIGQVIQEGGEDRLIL
UniProt Q14773: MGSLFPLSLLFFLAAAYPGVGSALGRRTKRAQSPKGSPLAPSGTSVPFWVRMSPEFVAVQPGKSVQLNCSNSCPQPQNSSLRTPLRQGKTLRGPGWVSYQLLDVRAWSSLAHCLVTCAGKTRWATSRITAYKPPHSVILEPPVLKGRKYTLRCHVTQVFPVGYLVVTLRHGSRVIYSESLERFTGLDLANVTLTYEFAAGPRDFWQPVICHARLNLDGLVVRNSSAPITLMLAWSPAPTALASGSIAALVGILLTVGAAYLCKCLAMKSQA
UniProt Q9HBG6: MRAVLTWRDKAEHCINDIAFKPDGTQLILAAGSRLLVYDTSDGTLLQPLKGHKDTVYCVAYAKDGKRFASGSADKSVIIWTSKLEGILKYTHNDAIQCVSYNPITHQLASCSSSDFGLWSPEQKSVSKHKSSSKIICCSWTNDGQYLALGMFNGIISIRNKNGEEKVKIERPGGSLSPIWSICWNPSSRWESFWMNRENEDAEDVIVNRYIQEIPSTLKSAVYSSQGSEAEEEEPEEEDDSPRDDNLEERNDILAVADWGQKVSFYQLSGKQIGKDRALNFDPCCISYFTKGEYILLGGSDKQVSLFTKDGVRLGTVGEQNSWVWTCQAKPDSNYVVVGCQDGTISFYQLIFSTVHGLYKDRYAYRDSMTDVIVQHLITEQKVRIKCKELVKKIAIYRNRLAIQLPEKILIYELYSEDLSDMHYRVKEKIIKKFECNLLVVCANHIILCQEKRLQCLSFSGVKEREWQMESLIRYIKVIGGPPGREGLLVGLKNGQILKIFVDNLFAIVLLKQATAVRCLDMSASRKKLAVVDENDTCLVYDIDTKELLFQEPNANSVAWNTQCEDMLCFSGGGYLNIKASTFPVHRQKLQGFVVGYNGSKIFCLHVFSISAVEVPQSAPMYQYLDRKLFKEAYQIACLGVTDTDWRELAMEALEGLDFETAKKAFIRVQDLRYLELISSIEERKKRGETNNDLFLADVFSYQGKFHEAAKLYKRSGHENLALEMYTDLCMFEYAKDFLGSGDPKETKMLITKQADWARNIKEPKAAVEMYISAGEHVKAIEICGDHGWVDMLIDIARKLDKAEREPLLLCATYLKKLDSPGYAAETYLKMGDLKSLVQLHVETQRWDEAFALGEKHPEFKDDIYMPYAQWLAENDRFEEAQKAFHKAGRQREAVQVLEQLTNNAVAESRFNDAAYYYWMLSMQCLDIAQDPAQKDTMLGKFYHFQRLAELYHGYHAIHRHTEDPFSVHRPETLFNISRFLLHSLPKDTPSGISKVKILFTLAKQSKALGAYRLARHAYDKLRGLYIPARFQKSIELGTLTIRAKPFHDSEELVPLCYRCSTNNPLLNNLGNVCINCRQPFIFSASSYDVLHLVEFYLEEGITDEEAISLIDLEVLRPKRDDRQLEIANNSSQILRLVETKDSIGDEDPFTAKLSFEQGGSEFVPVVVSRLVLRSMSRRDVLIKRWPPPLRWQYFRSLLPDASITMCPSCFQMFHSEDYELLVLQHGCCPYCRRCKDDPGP
UniProt Q6PI98, whole entry, looked up: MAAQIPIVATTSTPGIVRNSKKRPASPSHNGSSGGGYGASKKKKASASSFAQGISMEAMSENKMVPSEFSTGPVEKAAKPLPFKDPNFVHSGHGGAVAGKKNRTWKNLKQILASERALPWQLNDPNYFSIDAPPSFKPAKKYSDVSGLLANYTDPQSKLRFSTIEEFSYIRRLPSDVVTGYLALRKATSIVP
UniProt Q92598: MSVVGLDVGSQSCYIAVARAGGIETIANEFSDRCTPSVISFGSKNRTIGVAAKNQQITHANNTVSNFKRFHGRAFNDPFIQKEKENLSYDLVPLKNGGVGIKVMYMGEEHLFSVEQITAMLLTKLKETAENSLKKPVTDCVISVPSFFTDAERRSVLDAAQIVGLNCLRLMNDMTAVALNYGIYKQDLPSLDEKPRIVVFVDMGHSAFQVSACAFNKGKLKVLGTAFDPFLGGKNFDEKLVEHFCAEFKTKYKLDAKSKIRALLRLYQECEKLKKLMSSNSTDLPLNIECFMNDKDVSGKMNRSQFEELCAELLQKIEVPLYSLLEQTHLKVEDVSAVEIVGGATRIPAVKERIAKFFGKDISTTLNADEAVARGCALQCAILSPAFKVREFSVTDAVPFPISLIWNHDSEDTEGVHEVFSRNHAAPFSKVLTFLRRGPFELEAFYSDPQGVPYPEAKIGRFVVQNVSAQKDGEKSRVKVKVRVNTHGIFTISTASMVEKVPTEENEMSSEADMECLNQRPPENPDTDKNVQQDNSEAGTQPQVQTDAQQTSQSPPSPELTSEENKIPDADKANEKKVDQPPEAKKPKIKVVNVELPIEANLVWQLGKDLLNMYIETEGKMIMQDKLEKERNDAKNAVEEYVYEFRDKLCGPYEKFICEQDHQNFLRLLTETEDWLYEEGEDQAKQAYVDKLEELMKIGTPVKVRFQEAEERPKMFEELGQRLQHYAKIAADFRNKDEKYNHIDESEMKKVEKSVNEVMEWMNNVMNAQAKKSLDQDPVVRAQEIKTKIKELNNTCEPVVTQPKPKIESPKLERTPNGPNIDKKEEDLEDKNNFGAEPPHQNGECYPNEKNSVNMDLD
UniProt Q9H2S9: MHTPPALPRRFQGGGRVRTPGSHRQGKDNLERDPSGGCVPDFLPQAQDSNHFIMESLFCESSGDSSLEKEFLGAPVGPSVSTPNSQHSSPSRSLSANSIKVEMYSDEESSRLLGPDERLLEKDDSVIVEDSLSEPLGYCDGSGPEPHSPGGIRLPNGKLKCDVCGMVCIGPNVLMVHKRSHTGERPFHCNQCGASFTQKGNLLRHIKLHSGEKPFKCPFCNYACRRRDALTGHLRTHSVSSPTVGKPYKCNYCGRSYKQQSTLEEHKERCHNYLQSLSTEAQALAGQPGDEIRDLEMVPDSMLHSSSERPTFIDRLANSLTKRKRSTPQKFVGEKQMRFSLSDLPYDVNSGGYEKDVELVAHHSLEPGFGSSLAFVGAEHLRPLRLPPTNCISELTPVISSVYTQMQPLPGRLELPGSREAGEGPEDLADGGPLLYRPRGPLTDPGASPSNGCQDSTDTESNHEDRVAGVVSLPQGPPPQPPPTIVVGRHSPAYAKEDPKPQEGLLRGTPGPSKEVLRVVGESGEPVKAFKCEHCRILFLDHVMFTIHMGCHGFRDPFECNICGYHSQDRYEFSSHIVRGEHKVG
IGKV3D-7, A0A0C4DH55, UniProt A0A0C4DH55, whole entry, looked up: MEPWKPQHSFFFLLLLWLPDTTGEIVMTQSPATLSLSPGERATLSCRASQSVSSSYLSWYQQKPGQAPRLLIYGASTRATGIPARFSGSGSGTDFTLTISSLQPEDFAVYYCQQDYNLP
UniProt P01877, whole entry, looked up: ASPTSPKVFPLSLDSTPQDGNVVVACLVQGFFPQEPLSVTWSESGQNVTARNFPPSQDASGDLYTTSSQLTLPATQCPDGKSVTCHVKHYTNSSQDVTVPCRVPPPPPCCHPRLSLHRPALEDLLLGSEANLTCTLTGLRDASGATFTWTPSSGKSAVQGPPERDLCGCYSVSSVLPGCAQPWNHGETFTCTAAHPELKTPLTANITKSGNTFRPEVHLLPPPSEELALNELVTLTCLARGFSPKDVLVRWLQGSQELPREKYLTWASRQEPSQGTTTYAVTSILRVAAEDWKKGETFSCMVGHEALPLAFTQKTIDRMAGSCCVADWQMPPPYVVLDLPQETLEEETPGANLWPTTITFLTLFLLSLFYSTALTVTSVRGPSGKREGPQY

Compound: C1=CC=C(C=C1)C2=NC(=C(N2)C3=CC=NC=C3)C4=CC(=C(C=C4)Cl)O
Assay: log2 fold change, soluble protein after heating vs DMSO (PISA); higher = thermal stabilisation; K562 lysate, 10 uM; active = over 0.2 and 3.5 SD of the protein, either way, in both replicates (recomputed)
Summary of the method: (§1)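 K562 pellets were dounce-homogenised in PBS pH 7.4 with 1 mM MgCl2, and the crude extract at 1 mg/mL protein was treated with 10 μM compound for 30 min. Aliquots were heated for 3 min across 48°C-58°C, pooled, and brought to 0.5% NP-40 at 4°C; soluble protein was the supernatant after 21,000xg for 90 min. Soluble protein was quantified by TMTpro 16plex LC-MS/MS with channel sums equalised, and reported as log2 fold change in thermal stability against DMSO controls, with values from duplicates.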

log2 fold change, inactive:
ICMT (UniProt O60725) 0.039
ICOSLG isoform 2 (UniProt O75144) -0.108
ICE1 (UniProt Q9Y2F5) -0.079
IFT81 (UniProt Q8WYA0) 0.005
ICAM4 (UniProt Q14773) -0.145
IFT57 (UniProt Q9NWB7) -0.082
IFT122 isoform 5 (UniProt Q9HBG6) -0.126
HSPA8 (UniProt E9PN89) 0.082
HYKK (UniProt A2RU49) 0.057
HSPH1 (UniProt Q5TBM3) 0.05
IGFBP4 (UniProt P22692) -0.033
IGHV3-72, A0A4W8ZXM2 -0.044
HTD2 (UniProt P86397) -0.199
INO80C isoform 4 (UniProt Q6PI98) 0.079
HUWE1 (UniProt H0Y659) -0.14
HSPH1 isoform 2 (UniProt Q92598) -0.028
IFIT3 (UniProt O14879) 0.083
IKZF4 (UniProt Q9H2S9) 0.056
IGKV3D-7, A0A0C4DH55 0.444
IGHG3 (UniProt P01860) 0.721
IFT88 (UniProt Q13099) 0.025
HUWE1, A0A087X1S3 0.101
ING1 (UniProt Q9UK53) -0.023
IGHA2 (UniProt P01877) -0.168
IMPDH2 (UniProt H0Y4R1) -0.155

log2 fold change, active:
HYDIN (UniProt Q4G0P3) 1.34

Compound: C1=CC=C2C(=C1)C3=NNC4=CC=CC(=C43)C2=O
Assay: as above
Summary of the method: as §1

log2 fold change, inactive:
ICMT (UniProt O60725) -0.011
IFT122 isoform 5 (UniProt Q9HBG6) -0.144
HYDIN (UniProt Q4G0P3) 0.036
IGSF1 isoform 4 (UniProt Q8N6C5) -0.171
HTD2 (UniProt P86397) 0.084
IFT46 isoform 2 (UniProt Q9NQC8) 0.135
HTR1F (UniProt P30939) -0.033
IDH3A isoform 2 (UniProt P50213) 0.082
IMPDH2 (UniProt H0Y4R1) -0.029
